For this assay, the target named is recombinant human type XXIII collagen ectodomain (R&D system, 4165-CL) (human) (UniProt Q86Y22). As to the kind of experiment: Western blot, reducing SDS-PAGE, 1 µg/ml 10F6 as primary antibody.

Protein sequences, listed by entry. Tags and fused reporters are not part of them. Residues count along the entry.
UniProt Q86Y22, residues 57-540: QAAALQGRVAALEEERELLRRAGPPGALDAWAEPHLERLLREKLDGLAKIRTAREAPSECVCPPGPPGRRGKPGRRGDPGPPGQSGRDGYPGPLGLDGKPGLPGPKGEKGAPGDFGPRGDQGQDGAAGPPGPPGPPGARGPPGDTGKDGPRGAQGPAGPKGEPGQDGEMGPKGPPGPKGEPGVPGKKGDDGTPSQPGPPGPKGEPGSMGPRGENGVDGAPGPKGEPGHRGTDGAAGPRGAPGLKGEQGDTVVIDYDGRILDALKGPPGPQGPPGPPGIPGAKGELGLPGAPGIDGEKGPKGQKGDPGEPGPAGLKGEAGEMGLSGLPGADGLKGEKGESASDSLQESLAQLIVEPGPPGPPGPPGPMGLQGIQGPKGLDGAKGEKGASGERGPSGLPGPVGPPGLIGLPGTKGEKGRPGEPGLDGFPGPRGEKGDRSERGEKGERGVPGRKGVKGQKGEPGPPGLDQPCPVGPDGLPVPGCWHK

No constants are given. Whether binding was seen depends on the method and setting. Some binding calls cover weakened binding; strength is not graded here.

B1: monoclonal antibody 10F6 (antibody, mouse IgG2b, kappa, V domains shown)
VH: EVKLVESGGGLVKPGGSLKLSCAASGFTFSSYAMSWVRQTPEKRLAWVASISTAGRTYYPDTVRGRITISRDNARNILYLQMSSLRSEDTAIYYCARPDYDYDGYINWGQGTLVTVSA
VL: DIVMTQAAFSNPVTLGTSAYISCRSSKSLLHSNGVTYLYWYLQKPGQSPQLLIYQMSNLASGVPDRFSSSGSGTDFTLRISRVEAEDVGVYYCAQNLELPLTFGAGTKLELKR
notes: Mouse (Balb/C) hybridoma antibody purified on an IgG column; also called PRO-C23 antibody 10F6; PRO-C23 antibody
For B1, the binding result is recorded as “binds”.
